According to the supplement of paper PMC3334620:
Over roughly 33,000 sequences, “E-score (-0.5 to 0.5)” has its median near -0.0014; the highest 2% begin near 0.25. Some of the results follow.

Molecular target: T1, Cad1 (UniProt P24813)
T1 sequence: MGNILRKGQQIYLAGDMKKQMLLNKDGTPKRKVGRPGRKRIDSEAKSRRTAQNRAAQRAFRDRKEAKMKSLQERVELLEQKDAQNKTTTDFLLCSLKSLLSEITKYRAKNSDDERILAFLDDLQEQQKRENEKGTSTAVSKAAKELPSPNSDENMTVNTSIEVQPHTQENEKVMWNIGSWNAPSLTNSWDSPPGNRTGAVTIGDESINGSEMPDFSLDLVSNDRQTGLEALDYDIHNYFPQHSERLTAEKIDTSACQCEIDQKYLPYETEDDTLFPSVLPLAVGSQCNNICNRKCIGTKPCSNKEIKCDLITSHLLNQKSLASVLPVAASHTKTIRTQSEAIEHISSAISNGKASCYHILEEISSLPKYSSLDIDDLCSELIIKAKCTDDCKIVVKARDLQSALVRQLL
Assay: PBM E-score (8-mer binding enrichment) (E-score (-0.5 to 0.5)); higher = stronger / more preferred TF binding
Settings: protein concentration: 100 nM; construct: GST-full length
How it was run: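 GST-tagged yeast TFs (full-length or DNA-binding domain) were made by PURExpress in vitro transcription/translation and applied at about 100-200 nM to universal all-10-mer Agilent arrays. The arrays were made double-stranded by primer extension, on fresh or once-stripped slides. Bound protein was detected with fluorescent anti-GST, and scans were normalised with masliner. Each ungapped eight-base word, pooled with its reverse complement, received an E-score (modified Wilcoxon-Mann-Whitney statistic) from the Universal PBM Analysis Suite.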

Sequence | PBM E-score
AACGGACG | 0.00202
ATGTTCTC | 0.0835
CTACTTTC | -0.066
AGCCGGGA | -0.0305
ACGGTTCT | -0.0783
ATGTCAGC | 0.315
CGGTCGAC | 0.208
GTGTGCGA | 0.0188
GTTGAGGA | -0.0239
AAAATAAA | 0.128
ATACCCTC | -0.0628
CCGCATTA | 0.172
AGTTATGA | 0.133
ATCGAGTA | 0.0173
TCCACTCA | -0.0328
CTTTGTGC | 0.0539
CGGCGAAC | -0.00146
ATTCAAAA | 0.187
TGATGCCA | 0.0577
CGGTTGTA | -0.11
AAGGGTTG | 0.035
ACTAGTCA | -0.144

Look-ups from the entries so far:
ACTAGTCA – PBM E-score: -0.144
ATCGAGTA – PBM E-score: 0.0173
ATGTTCTC – PBM E-score: 0.0835
ATACCCTC – PBM E-score: -0.0628

(further entries)

Sequence | PBM E-score
CTCGCATA | -0.0526
ATACAGAT | 0.182
AAATATCA | 0.248
GTGCCAAA | 0.103
CCCGATAC | 0.0456
CCGGCCCA | -0.261
CTACGAAC | 0.0364
AAGTTACC | 0.0597
TCTGAACA | 0.184
GAAACGTC | 0.0141
CCAATAGG | -0.108
ATGGTCTA | -0.112
CTATTAGA | -0.057
GCCTTAGC | 0.0664
GTGGTCTA | -0.143
ATTTTCGA | 0.0859
GATGTCCC | -0.205
ACGATGCT | -0.135
AACTAGAA | -0.0141
GTCAGGAC | 0.0682
CCTAACCC | -0.343
CTAGTAGA | -0.087

Sequence | PBM E-score
CACGGCCC | -0.113
CTTGGGAA | 0.0607
AGCGCCCG | 0.0761
ACACCGTC | 0.0723
CAGTTGAC | 0.0173
CCGCGCCA | -0.0216
GCGTTGAA | 0.0746
AATAGAAC | 0.158
TGAACTCA | 0.0525
GCCCTGAA | 0.0233
AATCGCTA | -0.0577
CCTAAAGC | -0.12
ATGAAATA | 0.213
GGGTAGAA | -0.0534
ACCCAACG | -0.033
ATCCATAC | 0.0456
GGGAGTAC | -0.141
GCAGGCCC | -0.291
CTTCAACC | 0.112
ATATGGAC | 0.0863
CCCATTCC | -0.265
AAACTCCC | 0.026

Sequence | PBM E-score
AAGATTAG | 0.144
CAACTGGG | -0.345
GATCCCCA | -0.0705
CGAATCTA | 0.013
CCCTGTTC | -0.141
TGGCAGAA | 0.0508
GTTGCATA | 0.0592
CTTCCAAG | -0.122
ATCTCGCG | 0.256
GAGCACAC | -0.193
ACTGTTTA | -0.0208
AGTCTCAG | -0.0604
ATCTACTA | 0.0659
AAGCCATG | -0.0925
ATGTTAAC | 0.0833
CCAATCGA | 0.105
GATACTTA | 0.00706
AACATAAG | 0.261
CACTCAGG | -0.0655
AACCCACC | 0.0212
